Non-standard residues stand in square brackets, D forms with d. No end group written: not given here. Ahx = NCCCCCC(=O)O
Assay: general procedure: Fmoc solid-phase peptide synthesis
Details: whole synthesis, based on the capacity of the resin

Row | Substance | isolated yield [%]
1 | 6‐aminohexanoic acid (Ahx)–Phe–Leu–Arg–COOH | 36
2 | [Ahx]LLR-OH (N-terminus assumed; SMILES CC(C)C[C@H](NC(=O)CCCCCN)C(=O)N[C@@H](CC(C)C)C(=O)N[C@@H](CCCNC(=N)N)C(=O)O) | 74
